## Screening data, single-dose tests

Chains of the proteins cited; added tags and fusions are not shown.
UniProt I6X8D2, whole entry: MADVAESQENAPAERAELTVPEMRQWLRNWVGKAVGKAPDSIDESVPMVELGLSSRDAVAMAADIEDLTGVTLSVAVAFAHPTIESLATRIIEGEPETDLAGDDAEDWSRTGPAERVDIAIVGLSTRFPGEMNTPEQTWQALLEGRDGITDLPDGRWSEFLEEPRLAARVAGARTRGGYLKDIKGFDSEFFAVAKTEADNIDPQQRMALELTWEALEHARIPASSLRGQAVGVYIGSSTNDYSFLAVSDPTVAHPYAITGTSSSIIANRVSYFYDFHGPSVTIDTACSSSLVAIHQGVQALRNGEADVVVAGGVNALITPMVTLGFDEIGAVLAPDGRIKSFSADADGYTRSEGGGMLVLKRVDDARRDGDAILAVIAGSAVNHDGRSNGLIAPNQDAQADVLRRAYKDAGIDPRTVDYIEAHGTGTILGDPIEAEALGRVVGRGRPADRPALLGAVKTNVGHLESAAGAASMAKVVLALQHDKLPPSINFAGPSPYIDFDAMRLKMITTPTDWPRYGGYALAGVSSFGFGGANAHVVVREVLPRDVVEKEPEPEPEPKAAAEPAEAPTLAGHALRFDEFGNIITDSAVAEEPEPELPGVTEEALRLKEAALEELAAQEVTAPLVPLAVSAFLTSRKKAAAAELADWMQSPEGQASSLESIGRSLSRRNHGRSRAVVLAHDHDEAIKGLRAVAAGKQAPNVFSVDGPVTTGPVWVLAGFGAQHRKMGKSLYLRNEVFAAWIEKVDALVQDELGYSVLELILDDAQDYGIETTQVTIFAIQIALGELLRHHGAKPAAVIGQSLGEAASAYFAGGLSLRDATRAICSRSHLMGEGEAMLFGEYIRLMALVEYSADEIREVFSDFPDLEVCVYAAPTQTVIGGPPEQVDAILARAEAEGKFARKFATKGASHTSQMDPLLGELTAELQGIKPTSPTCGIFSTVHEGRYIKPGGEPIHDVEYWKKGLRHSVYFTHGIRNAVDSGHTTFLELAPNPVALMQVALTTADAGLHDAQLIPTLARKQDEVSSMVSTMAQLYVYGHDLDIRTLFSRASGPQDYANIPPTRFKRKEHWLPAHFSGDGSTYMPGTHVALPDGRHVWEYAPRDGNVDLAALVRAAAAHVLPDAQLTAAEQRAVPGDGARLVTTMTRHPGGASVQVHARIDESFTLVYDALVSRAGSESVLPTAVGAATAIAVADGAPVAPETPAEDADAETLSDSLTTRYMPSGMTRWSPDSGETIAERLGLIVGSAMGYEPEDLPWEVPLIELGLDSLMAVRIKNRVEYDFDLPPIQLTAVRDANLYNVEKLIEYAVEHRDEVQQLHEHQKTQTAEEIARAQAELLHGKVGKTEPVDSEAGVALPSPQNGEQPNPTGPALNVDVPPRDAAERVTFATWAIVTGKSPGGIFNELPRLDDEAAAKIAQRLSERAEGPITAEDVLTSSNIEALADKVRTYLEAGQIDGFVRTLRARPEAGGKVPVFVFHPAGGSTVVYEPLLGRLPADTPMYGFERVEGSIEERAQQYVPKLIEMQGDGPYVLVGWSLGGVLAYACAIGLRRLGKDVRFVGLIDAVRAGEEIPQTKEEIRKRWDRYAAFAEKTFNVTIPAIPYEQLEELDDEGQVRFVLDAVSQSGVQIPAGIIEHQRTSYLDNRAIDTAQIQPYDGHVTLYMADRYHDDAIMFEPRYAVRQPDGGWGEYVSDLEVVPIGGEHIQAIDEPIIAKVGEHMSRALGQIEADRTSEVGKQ

The values are deposited in ChEMBL (CHEMBL3988442, “University of Dundee, Small-Polar-MMV Screening Library” (2021)).

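Polyketide synthase Pks13, Mycobacterium tuberculosis (UniProt I6X8D2). Enzyme assay of the thioesterase domain of polyketide synthase 13; the read-out is not stated. Compounds at 30 µM. Higher reads as stronger inhibition (inferred from which compounds were picked for retests). About 67,000 compounds were tested under these conditions; 0.46% (about 300) showed 50% or more at least once.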

Results are given as percent effect. The controls that fix the scale are not given in the record; negative values are as filed. Compounds were drawn at random from those tested, without regard to their results.

SMILES,percent effect
Cn1cc(N2CC3(CCN(C(=O)c4cccn4C)CC3)OCC2=O)cn1,-3.146
Cc1ccccc1OCn1ccc(C(=O)NCCN2CCOCC2)n1,-17.83
CCc1nnc(CN2CCc3[nH]c(-c4ccc(OC)cc4)nc3C2)o1,-12.66
CC(C)c1cc(N2CCSCC2)n2nccc2n1,-16.64
COc1ccc(S(=O)(=O)N2CCn3nc(C)nc3C2)cc1C,-30.37
COc1ccc2cccc(CC(=O)NCCc3n[nH]c(=O)[nH]3)c2c1,-35.41
NC(=O)CSc1ccccc1NC(=O)C1CCCCC1,-1.357
CC(C)=CCCC1(C)C=Cc2c(cc(C)n(CC(=O)O)c2=O)O1 (stereo not drawn),13.41
COc1ccsc1C(=O)Nc1cc(Br)c(=O)n(C)c1,-4.734
CC(NC(=O)NCCn1ccnc1)c1ccc2c(c1)NC(=O)CO2 (stereo not drawn),-44.46
COc1ncnc2c1CCN(CC1CCOC1)CC2 (stereo not drawn),4.365
O=C(NCCc1ccncc1)c1cccc(S(=O)(=O)NC2CC2)c1,-15.32
COc1cc(CNC(=O)Nc2nncs2)ccc1O,-15.58
CC(C)Nc1ncnc2c1CCN(C(=O)NCc1cccnc1)CC2,-29.83
C[C@@H](NC(=O)c1cnccn1)c1c(-c2ccc(F)cc2)noc1C(=O)O,-32.17
COCC1CN(S(=O)(=O)c2cccc(F)c2)Cc2nccn2C1 (stereo not drawn),-1.984
COc1cccc2c1OCC(NC(=O)NCCC(N)=O)C2 (stereo not drawn),-22.89
CCn1cc(NC(=O)C2CCN(Cc3nc(C(C)C)no3)CC2)cn1,-21.8
Cc1noc(C)c1CN1C[C@H](C)[C@]2(CCN(Cc3cccnc3)C2=O)C1,-18.36
c1cnc(NC2COC3(CCN(Cc4cccs4)CC3)C2)nc1 (stereo not drawn),2.228
Cc1ccc(C2(O)CCN(C(=O)Cn3cc(C)c(=O)[nH]c3=O)CC2)nc1,-9.191
CCOCCN1CCN(Cc2nc(CC(C)C)no2)CC1,-13.78
CS(=O)(=O)Cc1ccc(Cl)cc1NCc1cccc(F)c1F,19.47
Cc1nc(C2(NCC(=O)NC(=O)NCc3cccs3)CCCCC2)no1,-30.02
Cc1cc(NCC2(O)CCOCC2)nc2ccccc12,-8.166
NS(=O)(=O)c1cnc(NCC2(c3cccc(F)c3)CCOCC2)s1,-23.89
Cc1cccc(Cn2ccc(NS(C)(=O)=O)n2)c1,-29.27
CNc1cncc(C2CCCN2S(=O)(=O)c2cccc(F)c2)n1 (stereo not drawn),33.18
CNC(=O)c1cccc(NC(=O)c2ccnc(N(C)C)c2)c1C,9.596
COCCN(Cc1nccs1)c1nc2c(s1)c(C)nn2C,-20.59
COc1ncc(NCc2ccsc2)cc1C(N)=O,9.418
Cc1cc(C)cc(-c2ccc(CC3(C(=O)O)CCOCC3)cc2)c1,-15.36
CC(=O)c1c(F)cccc1NC1CCN(S(=O)(=O)C2CC2)CC1,-211.2
COCc1cncc2c1CCN(C(=O)c1ccoc1C)C2,-22.14
CN(C)S(=O)(=O)N1CC[C@]2(O)CCN(c3nccs3)C[C@@H]2C1,15.82
CC(NC(=O)CSCC#N)c1cccc(NC(=O)c2ccccc2)c1 (stereo not drawn),-16.08
Cn1nc2c(cc1=O)CN(CC(=O)Nc1cc(C(C)(C)C)no1)CC2,-0.4813
O=C1CCN(C(=O)NCCCc2ccc(Cl)cc2Cl)CCN1,-5.379
CC(Cn1ccnc1)NC(=O)N(C)Cc1ccc2c(c1)OCO2 (stereo not drawn),-25.2
CCOCC1CN(C(=O)Cc2cccs2)Cc2ccnn2C1 (stereo not drawn),-13.43
Nc1ccc(C(=O)N2CCCC(C(=O)CCc3ccccc3)C2)cn1 (stereo not drawn),-16.24
COCCNC(=O)C1CCCN1S(=O)(=O)c1sc(=O)[nH]c1C (stereo not drawn),-33.58
O=S(=O)(c1ccc(F)cc1)N1CCCCC1c1cc[nH]n1 (stereo not drawn),4.17
CS(=O)(=O)NCc1ncn2c1CN(CCN1CCCC1)CCC2,0.7073
CS(=O)(=O)c1ccc(NC(=O)NCCC2=CCCCC2)cc1,-8.582
CC(C)(C)n1ncc2c1CCCC2NCc1ccc2c(c1)OCCO2 (stereo not drawn),-22.53
CCOc1ncccc1NC(=O)NC1CCN(C(C)=O)CC1,-17.71
O=C(NC1CC1)N1CCOC2(CCCN(c3cccc(F)c3)C2)C1 (stereo not drawn),-5.652
Cn1ncnc1CNC1CCCc2cc(F)ccc21 (stereo not drawn),14.62
COCCn1ccnc1C1CCCN(c2ncnc3c2CCC3)C1 (stereo not drawn),-5.144
CC(C)N1CCCC1c1cc(C(F)(F)F)[nH]n1 (stereo not drawn),3.22
c1cnc2c(CN3CCCCC3c3ccncn3)cnn2c1 (stereo not drawn),7.158
COCC1CN(Cc2cc(C)on2)Cc2cn(C)nc21 (stereo not drawn),-11.83
CS(=O)(=O)CC1(CNc2cc(C#N)c3cc(Cl)ccc3n2)CC1,-27.07
Cc1nc(CNCC2CCCN(C(=O)OC(C)(C)C)C2)cs1 (stereo not drawn),-10.43
Cc1nnc(C2CCN(c3ccc(F)cc3)CC2)o1,10.24
CN(Cc1ccccn1)C(=O)Nc1cc(C(F)(F)F)c[nH]c1=O,-11.93
CSCC(=O)N[C@H]1CC[C@H](Nc2nccc(-c3cccnc3)n2)C1,5.197
Cc1ccc(C(C(=O)O)N(C)CCN2CCOCC2)c(F)c1 (stereo not drawn),-14.84
Cc1cncc(NC(=O)c2ccc(CN3CC[C@H](O)C3)cc2)c1,-18.61
O=C(NCC1CC1)C1CCC2(CCN(C(=O)c3ccncc3)CC2)O1 (stereo not drawn),-47.31
CCN(CC)S(=O)(=O)NC1CCCc2nc(-c3ccccc3)ncc21 (stereo not drawn),-15.06
COCCN1CC2(CCN(C(=O)c3ccno3)CC2)c2ccccc21,-37.93
c1ccc(-c2cnc(CNCC3CCCN3c3cccnn3)o2)cc1 (stereo not drawn),-46.05
CCC[C@@H]1CN(c2ncnc3sccc23)C[C@H]1NS(C)(=O)=O,-45.16
COCc1n[nH]/c(=N/C(=O)COc2cnc(C)cc2O)s1,-19.86
CCc1c(C)nc2n(c1=O)CC(C(=O)Nc1nccs1)CS2 (stereo not drawn),-23.43
Cc1cc(O)nc(C2CCCN(Cc3ccncc3)C2)n1 (stereo not drawn),-33.57
CCn1c(CC2CCN(S(=O)(=O)c3cccc(C)c3)CC2)nn(C)c1=O,-12.42
Cc1cc(C)nc(C2CCN(C3CCOCC3)C2)n1 (stereo not drawn),0.5144
Cc1ncoc1C(=O)N1CCOC(CCCC(C)C)C1 (stereo not drawn),-7.651
COCCN1C(=O)CCC12CCCN(C(=O)NC(C)C)CC2 (stereo not drawn),-32.21
COc1cccc(CC(=O)N2CC[C@@H]3NC(=O)CC[C@@H]32)c1,-38.96
Cc1nc(C)c(CC(=O)NCc2ccc(F)cc2)s1,-29.72
COC(=O)c1cc2n(n1)CCN(C(=O)c1csc(CN(C)C)n1)C2,31.35
COC(=O)CNC(=O)c1nc(Br)sc1C(C)C,26.99
COc1ccc(NC(=O)CCN2CC=C(c3cnn(C)c3)CC2)c(C)c1,-21.52
O=S(=O)(c1ccc(Cl)s1)N1CCN(Cc2nc(-c3ccco3)cs2)CC1,-9.39
Cn1cncc1-c1nnc([C@H]2CCN(Cc3ncc[nH]3)C2)o1,61
Cc1n[nH]c2c1C(c1cc(F)cc(F)c1)SCC(=O)N2 (stereo not drawn),-9.539
COCCN1CCC2(CCC(=O)N2Cc2csc(C)n2)CC1,-20.72
C=C(C)CN(CC)C(=O)Nc1ccccc1CN(C)C(C)=O,-4.174
CS(=O)(=O)CCC(=O)N1CCC2(CCCN(C3CCOCC3)C2=O)C1 (stereo not drawn),-15.29
CN(Cc1cnccn1)S(=O)(=O)N1CCCC1c1ccco1 (stereo not drawn),-25.73
Cc1occc1C(=O)NCC(=O)NCCOc1ccc2c(c1)CCC2,-23.2

6 of the entries, repeated:

CCOCCN1CCN(Cc2nc(CC(C)C)no2)CC1 read -13.78%.
Cc1ccccc1OCn1ccc(C(=O)NCCN2CCOCC2)n1 read -17.83%.
COCCn1ccnc1C1CCCN(c2ncnc3c2CCC3)C1 (stereo not drawn) read -5.144%.
COc1ccc(S(=O)(=O)N2CCn3nc(C)nc3C2)cc1C read -30.37%.
c1cnc(NC2COC3(CCN(Cc4cccs4)CC3)C2)nc1 (stereo not drawn) read 2.228%.
CC(C)(C)n1ncc2c1CCCC2NCc1ccc2c(c1)OCCO2 (stereo not drawn) read -22.53%.